Laboratory results from patent publication US10785979B2, “Substituted ketoxime benzoylamides” (Bayer CropScience Aktiengesellschaft, priority 2015, dated 2020).
Some entries share one result that the patent states for a list of compounds.

What was measured:
Type in all cases: in vivo
Abutilon theophrasti [1] = assay: Post-emergence herbicidal action against harmful plants; details: one-leaf stage, application rate 80 g/ha, assessed visually after about 3 weeks vs untreated controls
Veronica persica [2] = assay: Pre-emergence herbicidal action against harmful plants; details: application rate 320 g/ha, scored visually after 3 weeks vs untreated controls, 100% = plants have died
Abutilon theophrasti [3] = assay: as above; details: application rate 320 g/ha, scored visually after 3 weeks vs untreated controls, 100% = plants have died
Veronica persica [4] = assay: Post-emergence herbicidal action against harmful plants; details: one-leaf stage, application rate 80 g/ha, assessed visually after about 3 weeks vs untreated controls

CC(=NOCC1CC1)c1c(S(C)(=O)=O)ccc(C(=O)Nc2nnnn2C)c1C (single isomer, unassigned) [1-74]
at least 80%: efficacy (herbicidal action in percent) against Abutilon theophrasti (Abutilon theophrasti [1]) | efficacy (herbicidal activity in percent) against Veronica persica (Veronica persica [2]) | efficacy (herbicidal activity in percent) against Abutilon theophrasti (Abutilon theophrasti [3]) | efficacy (herbicidal action in percent) against Veronica persica (Veronica persica [4])

CCCON=C(C)c1c(S(C)(=O)=O)ccc(C(=O)Nc2nnnn2CC)c1C (single isomer, unassigned) [2-71]
at least 80%: efficacy (herbicidal action in percent) against Abutilon theophrasti (Abutilon theophrasti [1]) | efficacy (herbicidal activity in percent) against Veronica persica (Veronica persica [2]) | efficacy (herbicidal activity in percent) against Abutilon theophrasti (Abutilon theophrasti [3]) | efficacy (herbicidal action in percent) against Veronica persica (Veronica persica [4])

CC(=NOCC1CC1)c1c(S(C)(=O)=O)ccc(C(=O)Nc2nnc(C)o2)c1C (single isomer, unassigned) [7-74]
at least 80%: efficacy (herbicidal action in percent) against Abutilon theophrasti (Abutilon theophrasti [1]) | efficacy (herbicidal activity in percent) against Veronica persica (Veronica persica [2]) | efficacy (herbicidal activity in percent) against Abutilon theophrasti (Abutilon theophrasti [3]) | efficacy (herbicidal action in percent) against Veronica persica (Veronica persica [4])

CC(=NOCC1CC1)c1c(S(C)(=O)=O)ccc(C(=O)Nc2nonc2Cl)c1C (single isomer, unassigned) [5-74]
at least 80%: efficacy (herbicidal activity in percent) against Veronica persica (Veronica persica [2]) | efficacy (herbicidal activity in percent) against Abutilon theophrasti (Abutilon theophrasti [3])

CCCn1nnnc1NC(=O)c1ccc(S(C)(=O)=O)c(C(C)=NOC)c1Cl (single isomer, unassigned) [3-15]
at least 80%: efficacy (herbicidal action in percent) against Abutilon theophrasti (Abutilon theophrasti [1]) | efficacy (herbicidal activity in percent) against Veronica persica (Veronica persica [2]) | efficacy (herbicidal activity in percent) against Abutilon theophrasti (Abutilon theophrasti [3]) | efficacy (herbicidal action in percent) against Veronica persica (Veronica persica [4])

CON=C(C)c1c(S(C)(=O)=O)ccc(C(=O)Nc2nonc2Cl)c1C (single isomer, unassigned) [5-67]
at least 80%: efficacy (herbicidal activity in percent) against Veronica persica (Veronica persica [2]) | efficacy (herbicidal activity in percent) against Abutilon theophrasti (Abutilon theophrasti [3])

CON=C(C)c1c(S(C)(=O)=O)ccc(C(=O)Nc2nnc(C)o2)c1Cl (single isomer, unassigned) [7-15]
at least 80%: efficacy (herbicidal action in percent) against Abutilon theophrasti (Abutilon theophrasti [1]) | efficacy (herbicidal activity in percent) against Veronica persica (Veronica persica [2]) | efficacy (herbicidal activity in percent) against Abutilon theophrasti (Abutilon theophrasti [3]) | efficacy (herbicidal action in percent) against Veronica persica (Veronica persica [4])

CON=C(C)c1c(S(C)(=O)=O)ccc(C(=O)Nc2nonc2C)c1C (single isomer, unassigned) [6-67]
at least 80%: efficacy (herbicidal activity in percent) against Veronica persica (Veronica persica [2]) | efficacy (herbicidal activity in percent) against Abutilon theophrasti (Abutilon theophrasti [3])

CCCn1nnnc1NC(=O)c1ccc(S(C)(=O)=O)c(C(C)=NOCC)c1Cl (single isomer, unassigned) [3-19]
at least 80%: efficacy (herbicidal action in percent) against Abutilon theophrasti (Abutilon theophrasti [1]) | efficacy (herbicidal activity in percent) against Veronica persica (Veronica persica [2]) | efficacy (herbicidal activity in percent) against Abutilon theophrasti (Abutilon theophrasti [3]) | efficacy (herbicidal action in percent) against Veronica persica (Veronica persica [4])

CCON=C(C)c1c(S(C)(=O)=O)ccc(C(=O)Nc2nnnn2C)c1C (single isomer, unassigned) [1-71]
at least 80%: efficacy (herbicidal activity in percent) against Veronica persica (Veronica persica [2]) | efficacy (herbicidal activity in percent) against Abutilon theophrasti (Abutilon theophrasti [3])

CC(=NOCC1CC1)c1c(S(C)(=O)=O)ccc(C(=O)Nc2ncnn2C)c1C [4-74, 3-[(1E or Z)—N-(cyclopropylmethoxy)ethanimidoyl]-2-methyl-4-(methylsulfonyl)-N-(1-methyl-1H-1,2,4-triazol-5-yl)benzamide]
at least 80%: efficacy (herbicidal activity in percent) against Veronica persica (Veronica persica [2]) | efficacy (herbicidal activity in percent) against Abutilon theophrasti (Abutilon theophrasti [3])

CCn1nnnc1NC(=O)c1ccc(S(C)(=O)=O)c(C(C)=NOCC(C)C)c1C [2-136]
at least 80%: efficacy (herbicidal action in percent) against Abutilon theophrasti (Abutilon theophrasti [1]) | efficacy (herbicidal activity in percent) against Veronica persica (Veronica persica [2]) | efficacy (herbicidal activity in percent) against Abutilon theophrasti (Abutilon theophrasti [3]) | efficacy (herbicidal action in percent) against Veronica persica (Veronica persica [4])

CON=C(C)c1c(Cl)ccc(C(=O)Nc2nnnn2C)c1Cl (single isomer, unassigned) [8-1]
at least 80%: efficacy (herbicidal action in percent) against Abutilon theophrasti (Abutilon theophrasti [1]) | efficacy (herbicidal activity in percent) against Veronica persica (Veronica persica [2]) | efficacy (herbicidal activity in percent) against Abutilon theophrasti (Abutilon theophrasti [3]) | efficacy (herbicidal action in percent) against Veronica persica (Veronica persica [4])

CCON=C(C)c1c(S(C)(=O)=O)ccc(C(=O)Nc2ncnn2C)c1Cl (single isomer, unassigned) [4-19]
at least 80%: efficacy (herbicidal action in percent) against Abutilon theophrasti (Abutilon theophrasti [1]) | efficacy (herbicidal action in percent) against Veronica persica (Veronica persica [4])

CCn1nnnc1NC(=O)c1ccc(S(C)(=O)=O)c(C(C)=NOCC(F)(F)F)c1C (single isomer, unassigned) [2-74]
at least 80%: efficacy (herbicidal action in percent) against Abutilon theophrasti (Abutilon theophrasti [1]) | efficacy (herbicidal activity in percent) against Veronica persica (Veronica persica [2]) | efficacy (herbicidal activity in percent) against Abutilon theophrasti (Abutilon theophrasti [3]) | efficacy (herbicidal action in percent) against Veronica persica (Veronica persica [4])

CCC(=NOC)c1c(S(C)(=O)=O)ccc(C(=O)Nc2nnnn2CC)c1C (single isomer, unassigned) [2-67]
at least 80%: efficacy (herbicidal action in percent) against Abutilon theophrasti (Abutilon theophrasti [1]) | efficacy (herbicidal activity in percent) against Veronica persica (Veronica persica [2]) | efficacy (herbicidal activity in percent) against Abutilon theophrasti (Abutilon theophrasti [3]) | efficacy (herbicidal action in percent) against Veronica persica (Veronica persica [4])

CON=C(C)c1c(S(C)(=O)=O)ccc(C(=O)Nc2nonc2C)c1Cl (single isomer, unassigned) [6-15]
at least 80%: efficacy (herbicidal activity in percent) against Veronica persica (Veronica persica [2]) | efficacy (herbicidal activity in percent) against Abutilon theophrasti (Abutilon theophrasti [3])

CCON=C(C)c1c(S(C)(=O)=O)ccc(C(=O)Nc2nnnn2CC)c1Cl (single isomer, unassigned) [2-19]
at least 80%: efficacy (herbicidal action in percent) against Abutilon theophrasti (Abutilon theophrasti [1]) | efficacy (herbicidal activity in percent) against Veronica persica (Veronica persica [2]) | efficacy (herbicidal activity in percent) against Abutilon theophrasti (Abutilon theophrasti [3]) | efficacy (herbicidal action in percent) against Veronica persica (Veronica persica [4])

CCON=C(C)c1c(S(C)(=O)=O)ccc(C(=O)Nc2nonc2C)c1C (single isomer, unassigned) [6-71]
at least 80%: efficacy (herbicidal activity in percent) against Veronica persica (Veronica persica [2]) | efficacy (herbicidal activity in percent) against Abutilon theophrasti (Abutilon theophrasti [3])

CON=C(C)c1c(S(C)(=O)=O)ccc(C(=O)Nc2nnnn2C)c1C (single isomer, unassigned) [8-25]
at least 80%: efficacy (herbicidal action in percent) against Abutilon theophrasti (Abutilon theophrasti [1]) | efficacy (herbicidal activity in percent) against Veronica persica (Veronica persica [2]) | efficacy (herbicidal activity in percent) against Abutilon theophrasti (Abutilon theophrasti [3]) | efficacy (herbicidal action in percent) against Veronica persica (Veronica persica [4])

CCON=C(C)c1c(S(C)(=O)=O)ccc(C(=O)Nc2nnc(C)o2)c1C (single isomer, unassigned) [7-71]
at least 80%: efficacy (herbicidal activity in percent) against Veronica persica (Veronica persica [2]) | efficacy (herbicidal activity in percent) against Abutilon theophrasti (Abutilon theophrasti [3])

CON=C(C)c1c(S(C)(=O)=O)ccc(C(=O)Nc2nonc2Cl)c1Cl (single isomer, unassigned) [5-15]
at least 80%: efficacy (herbicidal action in percent) against Abutilon theophrasti (Abutilon theophrasti [1]) | efficacy (herbicidal activity in percent) against Veronica persica (Veronica persica [2]) | efficacy (herbicidal activity in percent) against Abutilon theophrasti (Abutilon theophrasti [3]) | efficacy (herbicidal action in percent) against Veronica persica (Veronica persica [4])

CCON=C(C)c1c(S(C)(=O)=O)ccc(C(=O)Nc2nonc2C)c1Cl (single isomer, unassigned) [6-19]
at least 80%: efficacy (herbicidal activity in percent) against Veronica persica (Veronica persica [2]) | efficacy (herbicidal activity in percent) against Abutilon theophrasti (Abutilon theophrasti [3])

CCON=C(C)c1c(S(C)(=O)=O)ccc(C(=O)Nc2nonc2Cl)c1C (single isomer, unassigned) [5-71]
at least 80%: efficacy (herbicidal activity in percent) against Veronica persica (Veronica persica [2]) | efficacy (herbicidal activity in percent) against Abutilon theophrasti (Abutilon theophrasti [3])

CCON=C(C)c1c(S(C)(=O)=O)ccc(C(=O)Nc2nnnn2C)c1C (single isomer, unassigned) [8-26]
at least 80%: efficacy (herbicidal action in percent) against Abutilon theophrasti (Abutilon theophrasti [1]) | efficacy (herbicidal action in percent) against Veronica persica (Veronica persica [4])

CC(=NOCC1CC1)c1c(S(C)(=O)=O)ccc(C(=O)Nc2nonc2C)c1C (single isomer, unassigned) [6-74]
at least 80%: efficacy (herbicidal activity in percent) against Veronica persica (Veronica persica [2]) | efficacy (herbicidal activity in percent) against Abutilon theophrasti (Abutilon theophrasti [3])

CC(=NOCC(C)C)c1c(S(C)(=O)=O)ccc(C(=O)Nc2ncnn2C)c1C (single isomer, unassigned) [4-136]
at least 80%: efficacy (herbicidal action in percent) against Abutilon theophrasti (Abutilon theophrasti [1]) | efficacy (herbicidal action in percent) against Veronica persica (Veronica persica [4])

CCn1nnnc1NC(=O)c1ccc(S(C)(=O)=O)c(C(C)=NOC)c1C (single isomer, unassigned) [9-25]
at least 80%: efficacy (herbicidal action in percent) against Abutilon theophrasti (Abutilon theophrasti [1]) | efficacy (herbicidal activity in percent) against Veronica persica (Veronica persica [2]) | efficacy (herbicidal activity in percent) against Abutilon theophrasti (Abutilon theophrasti [3]) | efficacy (herbicidal action in percent) against Veronica persica (Veronica persica [4])

CCn1nnnc1NC(=O)c1ccc(S(C)(=O)=O)c(C(C)=NOC)c1Cl (single isomer, unassigned) [9-5]
at least 80%: efficacy (herbicidal action in percent) against Abutilon theophrasti (Abutilon theophrasti [1]) | efficacy (herbicidal activity in percent) against Veronica persica (Veronica persica [2]) | efficacy (herbicidal activity in percent) against Abutilon theophrasti (Abutilon theophrasti [3]) | efficacy (herbicidal action in percent) against Veronica persica (Veronica persica [4])

CON=C(C)c1c(S(C)(=O)=O)ccc(C(=O)Nc2nnnn2C)c1Cl (single isomer, unassigned) [1-15]
at least 80%: efficacy (herbicidal action in percent) against Abutilon theophrasti (Abutilon theophrasti [1]) | efficacy (herbicidal activity in percent) against Veronica persica (Veronica persica [2]) | efficacy (herbicidal activity in percent) against Abutilon theophrasti (Abutilon theophrasti [3]) | efficacy (herbicidal action in percent) against Veronica persica (Veronica persica [4])

CCON=C(C)c1c(S(C)(=O)=O)ccc(C(=O)Nc2nnc(C)o2)c1Cl (single isomer, unassigned) [7-19]
at least 80%: efficacy (herbicidal action in percent) against Abutilon theophrasti (Abutilon theophrasti [1]) | efficacy (herbicidal activity in percent) against Veronica persica (Veronica persica [2]) | efficacy (herbicidal activity in percent) against Abutilon theophrasti (Abutilon theophrasti [3]) | efficacy (herbicidal action in percent) against Veronica persica (Veronica persica [4])
